# Library screening results

Sequences of proteins named here, by UniProt entry; tags and fusion partners are left off.
UniProt E9BF75, entry or part of it: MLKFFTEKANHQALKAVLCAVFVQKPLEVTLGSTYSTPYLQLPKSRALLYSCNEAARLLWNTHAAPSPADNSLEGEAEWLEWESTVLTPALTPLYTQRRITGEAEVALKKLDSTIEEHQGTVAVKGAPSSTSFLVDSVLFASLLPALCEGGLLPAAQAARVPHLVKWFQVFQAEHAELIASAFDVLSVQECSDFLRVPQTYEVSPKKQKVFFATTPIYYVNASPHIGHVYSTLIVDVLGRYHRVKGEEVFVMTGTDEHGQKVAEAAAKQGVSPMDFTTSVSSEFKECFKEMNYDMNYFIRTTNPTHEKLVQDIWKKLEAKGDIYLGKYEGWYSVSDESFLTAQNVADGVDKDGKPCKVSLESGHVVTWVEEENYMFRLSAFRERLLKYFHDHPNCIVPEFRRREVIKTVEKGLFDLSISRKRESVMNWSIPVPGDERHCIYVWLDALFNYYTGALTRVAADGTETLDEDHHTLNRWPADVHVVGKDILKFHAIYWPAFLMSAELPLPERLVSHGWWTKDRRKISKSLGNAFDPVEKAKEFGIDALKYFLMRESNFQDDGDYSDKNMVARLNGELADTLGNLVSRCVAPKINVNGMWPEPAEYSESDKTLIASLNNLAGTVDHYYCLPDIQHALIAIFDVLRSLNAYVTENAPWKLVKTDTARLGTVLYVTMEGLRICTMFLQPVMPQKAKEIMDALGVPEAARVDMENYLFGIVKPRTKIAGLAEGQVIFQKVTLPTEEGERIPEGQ

Source: ChEMBL document CHEMBL3988442, “University of Dundee, Small-Polar-MMV Screening Library” (2021).

Results are percentages, as filed. The record does not define 0% and 100%; most values in the screen are far below 50% and negative numbers occur (in some assays of this library far below -100). The compounds are a random part of those screened.

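Primary screen of methionyl-tRNA synthetase; the read-out is not stated. Target: Methionyl-tRNA synthetase (putative), Leishmania donovani (UniProt E9BF75). The test concentration is not given. The values are filed as inhibition. Size under these conditions: about 68,000 compounds, about 24 of them at 50% or above in at least one test.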

SMILES	Inhibition
O=S1(=O)CCC(S(=O)(=O)c2cccc(S(=O)(=O)N3CCCC3)c2)C1 (stereo not drawn)	12.83
Clc1cccc(C2CCN(c3ncnc4c3CCNC4)C2)c1 (stereo not drawn)	11.17
CC1=N[C@@]2(CC[C@@H]3CN(S(=O)(=O)CC(C)C)C[C@@H]32)C(=O)N1CC1CC1	-1.587
CCc1cc(N2CCC(n3cc(C(=O)NC4CC4)nn3)CC2)ncn1	1.042
CC(=O)c1cc(CC(=O)N2CCN(S(=O)(=O)c3ccccc3)CC2)cs1	10.53
O=C(NCC(O)c1cccc(F)c1)c1sccc1OC(F)F (stereo not drawn)	1.804
O=C(NC[C@H]1CCCN1)c1cc(COc2cccc(C(F)(F)F)c2)[nH]n1	16.1
CC(C)c1ocnc1C(=O)N1CCC2(CC1)OCCO2	2.717
Fc1cccc(-c2nnn3c2COCC(CNCc2nccs2)C3)c1 (stereo not drawn)	14.57
COc1cc(C)cc(C(C(=O)O)N(C)Cc2ccon2)c1OC (stereo not drawn)	-15.9
O=C1C[C@H]2CC[C@@H](CN1)N2C(=O)CCc1ccc2c(c1)OCO2	16.97
Cc1cc2n(n1)CCN(c1nc(N(C)C)nc3c1CCNC3)C2	23.35
CN1C[C@@H](NC(=O)C2CC2)C[C@H]1c1nc(-c2cnccn2)no1	10.53
CC(O)CN1CCN(C(=O)c2cnn(-c3ccccc3F)c2)CC1 (stereo not drawn)	10.73
CCn1nc(C)c2nnn(CC(=O)Nc3c(C)cccc3C)c(=O)c21	10.37
COc1cccc(OCc2cc(C(=O)NC[C@H]3CCCN3)n[nH]2)c1	11.5
COc1ccc(-c2noc([C@@H]3C[C@H](NC(=O)NC(C)C)CN3C)n2)cc1	7.797
CCn1c(C)nnc1CN(C)C1CCN(CCCOC)C1 (stereo not drawn)	13.19
Fc1ccccc1CN1CCCC2(CCN(c3ncccn3)CC2)C1	11.34
Cc1cnn(CC2CN(CC(=O)Nc3sccc3C#N)CCO2)c1 (stereo not drawn)	19.39
CNC(=O)CNCC1(O)CCCN(Cc2ccc(F)c(F)c2)C1=O (stereo not drawn)	1.907
CCN1CC(COC(=O)c2ccc(Br)cc2F)CC1=O (stereo not drawn)	4.393
OCCN(Cc1cccnc1)c1ccc(Br)cn1	15.04
CN(C)CCN(C)C[C@@H]1CN(Cc2cccc(O)c2)C[C@@H]1CO	6.03
CC[C@@]1(O)CCN(C(=O)c2ccc(-c3cccc(F)c3)cc2)C[C@H]1O	12.39
c1cc(OCc2ccc3c(c2)OCO3)ccc1CNC1CC1	-2.113
CC1c2ncc(CN3CCN(C)CC3)n2CCN1CC1CC1 (stereo not drawn)	13.81
CCc1ccc(O)c(C(=O)NC2CCN(S(=O)(=O)CC)CC2)c1	11.04
CCNCCc1nc2cc(F)ccc2[nH]1	12.9
O=c1[nH]nc2n1CCN(S(=O)(=O)c1ccccc1Cl)C2	18.16
c1cc(-c2ccc(CN3CCCC4(CCNC4)C3)s2)[nH]n1 (stereo not drawn)	6.164
CCN(CC(O)c1ccc(C)cc1)C(=O)NC(C)C (stereo not drawn)	17.13
Cc1nc(N2CCC3(CCCNC3=O)C2)nc2c1CCCC2 (stereo not drawn)	5.645
COCCC1(C(=O)O)CCN(c2cc(C)c3ccccc3n2)CC1	9.756
O=C1CC[C@H]2[C@H](CCN2C(=O)C2CCOC2)N1Cc1ccncc1 (stereo partly drawn)	15.85
CC(C)OCc1noc(C2CCOC2)n1 (stereo not drawn)	12.84
COCC(=O)N1CC[C@H]2O[C@@H](C)C[C@H]2C1	6.468
CC(=O)N1CCn2c(-c3ccccc3)cnc2C12CCNCC2	10.78
CC(C)(C)S(=O)(=O)c1ccc(N2CCN(c3ccccn3)CC2)nn1	7.914
Cc1ccc(-c2nc(CN3CCOCC3)no2)cc1N1CCNC1=O	10.92
Cn1cc(C2CCCN2C(=O)Cc2n[nH]c3ccccc23)cn1 (stereo not drawn)	4.225
Cc1cc(C(=O)O)cc(S(=O)(=O)Nc2ccc3c(c2)OCO3)c1C	11.04
Cc1cc(O)cc(C2CCCN2C(=O)c2ccncc2)n1 (stereo not drawn)	11.7
Cn1ncc2c1NC(=O)CC2c1c(Cl)cccc1Cl (stereo not drawn)	19.26
COC(=O)c1ccc2ccn(CC3COCCO3)c(=O)c2c1 (stereo not drawn)	16.72
Cc1ccc(CNCC2Cn3nncc3CO2)s1 (stereo not drawn)	18.7
CC(=O)N(Cc1noc(C2CC2)n1)C1CCN(Cc2cc(C)on2)C1 (stereo not drawn)	14.8
CC1(C)CN(Cc2cc(C3CCCCC3)no2)CC[C@]1(C)O	9.408
CCCc1nnc(NC2CCN(C3CCOCC3)CC2)o1	11.62
CNC(=O)N1CCCCC1CCNS(C)(=O)=O (stereo not drawn)	1.523
CCOc1ccc(CN2CC[C@@](C)(O)[C@@H](Cc3ccccc3)C2)cn1	17.71
COCCC(=O)N1CCC2(CC1)CN(C(C)=O)Cc1ccccc1O2	10.25
Cc1ccc(F)c(CNc2ccn(CCC(N)=O)n2)c1	17.82
COC(=O)CN(C(=O)c1ccc(-n2ccnc2)cc1)C1CCCC1	9.399
Cc1cc(Cl)ccc1NCC(=O)Nc1cc(C(C)(C)C)no1	11.18